Results: patent US7951962B2, “Organic semiconductor compound, organic semiconductor thin film, organic semiconductor coating liquid, organic thin film transistor, methods for producing bis(benzo[4,5] thieno)[2,3-B:3′2′-E][1,4]dithin and bis(benzo [4,5]thieno)[2,3-B:2′3′-E][1,4]dithiin” (Seiko Epson Corporation, priority 2006, dated 2011)

What was measured:
[1] = Transfer characteristics of organic field effect transistor (example 2, monocrystal); conditions: VD −50V
From the text: In an example 2, the organic thin film transistor was manufactured using the anti-type bis(benzo[4,5]thieno)[2,3-b: 2′3′-e][1,4]dithiin to evaluate the characteristics of the thin film transistor. Hereinafter, a method for manufacturing the thin film transistor of the example 2 will be described with reference to the drawings concerned.
In the example 2, first, a monocrystal was produced to be used as the organic semiconductor thin film 17. As an exemplary method, the so-called physical vapor transport method was used to produce the monocrystal made of the anti-type bis(benzo[4,5]thieno)[2,3-b: 2′3′-e][1,4]dithiin.
FIG. 4 illustrates the physical vapor transport method. […] Next, on the higher-temperature side was placed a powdery organic semiconductor material 7 such as the anti-type bis(benzo[4,5]thieno)[2,3-b: 2′3′-e][1,4]dithiin. Temperature was adjusted such that the anti-type bis(benzo[4,5]thieno)[2,3-b: 2′3′-e][1,4]dithiin was gradually sublimed to be crystallized on a low-temperature portion of a lower stream side thereof. Furthermore, an obtained crystal 8 was placed again on the upper stream side to be repeatedly recrystallized a couple of times (e.g. three times), whereby a high-grade organic semiconductor crystal could be produced. In this manner, a flat-surface and normal monocrystal of the anti-type bis(benzo[4,5]thieno)[2,3-b: 2′3′-e][1,4]dithiin was obtained.
A region having conductivity due to the doped impurity was used as the gate electrode 12. […] Next, a surface of the conductive silicon wafer was oxidized to form the gate insulation film 13 made of silicon oxide with a thickness of approximately 500 nm. Then, on the gate insulation film 13 was deposited a gold layer having a thickness of approximately 10 nm by vacuum vapor deposition. After that, patterning of the layer was performed by etching and lithography to form the source electrode 14 and the drain electrode 15. The distance between the electrodes 14 and 15 was set to be, for example, approximately 5 μm. […]

[2] = Characteristics of bottom-gate organic thin film transistor (example 1, vacuum vapor deposited thin film)
From the text: In an example 1 below, the organic thin film transistor was manufactured using the syn-type bis(benzo[4,5]thieno)[2,3-b: 3′2′-e][1,4]dithiin to evaluate characteristics thereof. A description will be given of a method for manufacturing the thin film transistor of the example 1 with reference to FIGS. 2A through 3.
The substrate 11 shown in FIG. 2A is a monocrystal silicon substrate (silicon wafer) having an impurity-doped region. The region that was conductively doped with an impurity was used as the gate electrode 12.
Next, patterns of the source electrode 14 and the drain electrode 15 made of gold (Au) were formed by a vacuum deposition method and lithography. A distance (channel length) between both electrodes 14 and 15 was set to be 50 μm.
The organic semiconductor thin film 17 was 100 nm in thickness.
Characteristics of the bottom-gate type organic thin film transistor (gate electrode: n-type silicon; channel length L: 50 μm; and channel width W: 2 mm) obtained by the above method were measured in a vacuum. Measurements were performed for both p- and n-channel conditions.
In FIG. 3, the vertical axis on the left is a linear vertical axis and the vertical axis on the right is a logarithmic vertical axis.

Row | Structure (SMILES) | mobility μ of the device ([1]; monocrystal bonded on modifying film, electrode distance approximately 5 μm, calculated from FIG. 6) | semiconductor characteristics (conductivity σ versus VG) ([1]; monocrystal, FIG. 6) | threshold voltage Vth ([1]; monocrystal, calculated from FIG. 6) | ON/OFF ratio of the device ([2]; VD −5V, logarithmic plotting of FIG. 3) | semiconductor characteristics, n-channel condition ([2]; measurements for the n-channel condition) | semiconductor characteristics (ID versus VG) ([2]; p-channel condition, VD −5V, FIG. 3) | threshold voltage Vth ([2]; thin film 100 nm by vacuum vapor deposition, VD −5V, measured in a vacuum, p-channel, linear plotting of FIG. 3) [V] | mobility μ ([2]; thin film 100 nm by vacuum vapor deposition, channel length 50 μm, width 2 mm, VD −5V, measured in a vacuum, p-channel, linear plotting of FIG. 3)
1 | c1ccc2c3c(sc2c1)Sc1c(sc2ccccc12)S3 [bis(benzo[4,5]thieno)[2,3-b: 2′3′-e][1,4]dithiin] | 3.0×10^−3 cm^2/Vs | p-type semiconductor characteristics with a negative threshold voltage | approximately −20 V | – | – | – | – | –
2 | c1ccc2c3c(sc2c1)Sc1sc2ccccc2c1S3 [bis(benzo[4,5]thieno)[2,3-b: 3′2′-e][1,4]dithiin] | – | – | – | approximately 105 | no semiconductor characteristics were observed | p-type semiconductor characteristics with a negative threshold voltage | −60.5 | 5.0×10^−3 cm^2/Vs
